In patent publication US7807844B2, “TGF-β gene expression inhibitor” (Nihon University, priority 2003, dated 2010):
Part of at least one peptide drawing is inferred or uncertain, most often the ends.

System: double stranded oligonucleotide corresponding to the base pairs from −548 to −537 of hTGF-β1 promoter
Test: Gel-shift assay: binding of polyamide to double stranded oligonucleotide
Set-up: species or system human
Conditions: binding buffer, 37° C., 15 min; 20% polyacrylamide gel, autoradiography
Experimental: The double stranded DNA corresponding to the base pair sequence from −548 to −537 of the hTGF-β1 promoter (FIG. 1) was labeled by T4 polynucleotide using [γ-^32P]-ATP and incubated in a binding buffer at 37° C. for 15 min together with mismatch polyamide (lane 0) or with increasing amount of the polyamide (lane 1, 2 and 3 was 1 nM, 2 nM and 4 nM, respectively). The complexes thus obtained were electrophoresed on a 20% polyacrylamide gel and visualized by autoradiography.
Oligonucleotides were synthesized, annealed, and 12 kinds of double stranded oligonucleotides were produced corresponding to the base pairs from −548 to −537 of hTGF-β1 promoter (FIG. 1A). The double stranded DNAs were labeled with [γ-^32P]-ATP using T4 polynucleotide kinase, and incubated in a binding buffer (40 mM Tris, pH 7.9, 250 mM NaCl, 25 mM EDTA, 25 mM DTT, 100 mM KCl) with the polyamides or mismatched polyamides at 37° C. for 15 min. The complexes thus obtained were electrophoresed by 20% polyacrylamide gel and visualized by autoradiography.

CN(C)CCCNC(=O)CCNC(=O)c1cc(NC(=O)c2cc(NC(=O)CCNC(=O)c3cc(NC(=O)c4cc(NC(=O)c5cc(NC(=O)CCCNC(=O)c6cc(NC(=O)c7cc(NC(=O)c8nc(NC(=O)CCNC(=O)c9cc(NC(=O)c%10cc(NC(=O)c%11nc(NC(=O)CCNC(=S)Nc%12ccc%13c(c%12)C(=O)OC%13%12c%13ccc(O)cc%13Oc%13cc(O)ccc%13%12)cn%11C)cn%10C)cn9C)cn8C)cn7C)cn6C)cn5C)cn4C)cn3C)cn2C)cn1C [compound 4a, FITC-β-IPP-β-IPP-γ-PPP-β-PP-β Dp]
binding to the corresponding 12 base pairs double stranded oligonucleotide: able to bind
